These are yes or no findings as the source states them, for the method shown. A result given as binding can be weak or reduced; the word gives no strength.
Biological target: Flag RbAp46 (Xenopus, recombinant) (Xenopus) (UniProt Q8AVH1)
Assay: pull-down; GST-histone tails coupled to NHS Sepharose (20 μl resin) with 0.7 μg Hat1, RbAp46 or RbAp48, or RbAp46 with Hat1, in 150 μl 20 mM K-HEPES pH 7.4, 50 mM KCl, 0.1% Tween-20, 5 mM DTT; 2 h at 4 °C; washes with 300 mM KCl; coomassie-stained gel; both purified

Sequences of proteins named here, by UniProt entry; tags and fusion partners are left off. A change or cut given only in a name is not applied to a line headed by its entry.
UniProt Q8AVH1: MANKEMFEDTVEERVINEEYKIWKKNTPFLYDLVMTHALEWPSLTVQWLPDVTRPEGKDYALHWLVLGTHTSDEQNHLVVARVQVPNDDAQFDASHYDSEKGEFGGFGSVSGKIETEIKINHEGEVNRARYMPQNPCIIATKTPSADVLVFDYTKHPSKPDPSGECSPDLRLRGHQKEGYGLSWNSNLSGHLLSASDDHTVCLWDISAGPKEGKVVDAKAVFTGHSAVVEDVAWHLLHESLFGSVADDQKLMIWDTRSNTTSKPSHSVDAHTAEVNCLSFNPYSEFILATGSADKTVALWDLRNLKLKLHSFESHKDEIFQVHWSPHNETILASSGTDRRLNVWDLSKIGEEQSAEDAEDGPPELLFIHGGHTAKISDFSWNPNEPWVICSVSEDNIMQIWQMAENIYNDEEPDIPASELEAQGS
UniProt Q641D5: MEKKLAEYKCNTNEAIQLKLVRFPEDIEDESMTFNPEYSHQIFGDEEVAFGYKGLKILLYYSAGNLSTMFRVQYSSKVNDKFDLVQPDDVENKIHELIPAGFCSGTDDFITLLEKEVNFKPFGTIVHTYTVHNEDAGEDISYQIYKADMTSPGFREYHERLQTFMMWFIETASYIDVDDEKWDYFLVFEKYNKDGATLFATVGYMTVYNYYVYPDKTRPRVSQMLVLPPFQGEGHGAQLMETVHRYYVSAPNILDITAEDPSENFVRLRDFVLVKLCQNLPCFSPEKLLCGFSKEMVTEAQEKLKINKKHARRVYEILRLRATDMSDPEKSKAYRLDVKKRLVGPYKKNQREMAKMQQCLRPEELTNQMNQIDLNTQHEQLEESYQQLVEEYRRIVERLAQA

binding: binds
Substance: Flag Hat1 (Xenopus, recombinant) (from UniProt Q641D5) (enzyme)
